In publication PMC2911597, “Three-Dimensional Structure of TspO by Electron Cryomicroscopy of Helical Crystals” (Structure(London, England:1993), 2010):
These are yes or no findings as the source states them, for the method shown. Some results given as binding are weak or reduced against the parent protein; the word gives no strength.

Tests used:
[1] = target: EmrE (UniProt P23895); assay: native gel or EMSA; blue native PAGE as a1, sample incubated with 1% SDS for 10 min before the loading dye; both purified
[2] = target: EmrE (UniProt P23895); assay: native gel or EMSA; blue native PAGE, 4%-16% gradient Novex Bis-Tris gels, purified protein in DDM, 5-10 ug protein/lane, 4°C; both purified
[3] = target: tryptophan-rich sensory protein (TspO) from Rhodobacter sphaeroides (Rhodobacter sphaeroides) (UniProt Q9RFC8); assay: native gel or EMSA; blue native PAGE as a1, sample incubated with 1% SDS for 10 min before the loading dye; both purified

B1: EmrE (protein, UniProt P23895 1-110)
chain: MNPYIYLGGAILAEVIGTTLMKFSEGFTRLWPSVGTIICYCASFWLLAQTLAYIPTGIAYAIWSGVGIVLISLLSWGFFGQRLDLPAIIGMMLICAGVLIINLLSRSTPH
- binding [1]: no binding (condition: with 1% SDS)
- binding [2]: binds

B2: tryptophan-rich sensory protein (TspO) from Rhodobacter sphaeroides (natural protein, UniProt Q9RFC8 1-158, looked up)
chain: MNMDWALFLTFLAACGAPATTGALLKPDEWYDNLNKPWWNPPRWVFPLAWTSLYFLMSLAAMRVAQLEGSGQALAFYAAQLAFNTLWTPVFFGMKRMATALAVVMVMWLFVAATMWAFFQLDTWAGVLFVPYLIWATAATGLNFEAMRLNWNRPEARA
notes: also called rsTspO; TspO-His6; source: E. coli BL21(DE3), pET29, purified in DDM (NiNTA-agarose, gel filtration)
- binding [3]: no binding (condition: with 1% SDS)
